Laboratory results reported in paper PMC5833446.
These are yes or no findings as the source states them, for the method shown. Binding seen in cells or lysates may run through a third protein. Some results given as binding are weak or reduced against the parent protein; the word gives no strength.

Protein sequences, listed by entry. Tags and fused reporters are not part of them.
UniProt P19338: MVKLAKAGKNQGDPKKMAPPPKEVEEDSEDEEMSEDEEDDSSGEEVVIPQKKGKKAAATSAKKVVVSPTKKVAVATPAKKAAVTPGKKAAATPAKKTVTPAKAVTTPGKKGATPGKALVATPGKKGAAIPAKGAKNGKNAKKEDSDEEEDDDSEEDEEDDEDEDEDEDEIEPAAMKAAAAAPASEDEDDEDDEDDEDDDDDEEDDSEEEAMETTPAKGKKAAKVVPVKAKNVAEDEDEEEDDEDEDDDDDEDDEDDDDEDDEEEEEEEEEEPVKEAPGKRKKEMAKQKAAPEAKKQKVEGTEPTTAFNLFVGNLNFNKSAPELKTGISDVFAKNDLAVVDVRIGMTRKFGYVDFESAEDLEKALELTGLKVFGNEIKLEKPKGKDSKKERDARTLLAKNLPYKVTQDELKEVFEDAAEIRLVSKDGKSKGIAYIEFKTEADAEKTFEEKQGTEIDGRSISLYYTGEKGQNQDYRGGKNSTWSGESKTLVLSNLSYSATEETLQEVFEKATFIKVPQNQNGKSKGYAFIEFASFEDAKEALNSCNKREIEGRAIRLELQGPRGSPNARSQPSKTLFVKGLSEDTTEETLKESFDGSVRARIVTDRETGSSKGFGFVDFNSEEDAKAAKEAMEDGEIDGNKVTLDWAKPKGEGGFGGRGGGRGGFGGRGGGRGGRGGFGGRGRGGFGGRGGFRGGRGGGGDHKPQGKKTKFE

Assays:
[1] = molecular target: nucleolin (human (endogenous in SKBR3)) (UniProt P19338); experiment: co-IP; nucleolin pulldown (antibodies coupled to anti-IgG agarose beads) from lysates of dissected SKBR3-GFP tumor xenografts, ErbB2 detected by blot; mice untreated or treated with GroA; control pulldown background subtracted
[2] = molecular target: nucleolin (human (endogenous in SKBR3)) (UniProt P19338); experiment: proximity ligation; fixed SKBR3 or MDCK cells, rabbit anti-ErbB2 and mouse anti-nucleolin antibodies, Duolink In-Situ PLA; cells untreated or treated with GroA or tyrphostin AG-825 for 2 days

- binding [1]: binds
- binding [2]: binds
Substance: ErbB2 (from UniProt P04626 23-1255) (receptor)
